Data from US20130196903A1 (priority 2010, published 2013).

Experiment: general procedure: Fmoc solid-phase peptide synthesis; Champion PEG-PS resin with Fmoc-Rink linker; AM-Polystyrene LL resin (100-200 mesh, Novabiochem) with modified Rink link; HBTU/DIEA; HATU/DIEA with HOBt
Conditions: whole synthesis, acetate salt (13, 15); for final HPLC purity: 214 nm

Row | Substance | final HPLC purity | isolated yield [%]
1 | Ac-VALDPIDISIVLNKAKSDLEESKEWIRRSNGKLDSIGSGSG-C—NH2 | 95% | 10
2 | Ac-VALDPIDISIVLNKIKSDLEESKEWIRRSNKILDSIGSGSG-C—NH2 | 95% | 10
3 | Ac-WMEWDREINNYTSLIHSLIEESQNQQEKNEQELLGSG-C—NH2 | above 97% | –
